Experimental data: the supplement of paper PMC7224384

How the values were obtained:
[1] = system: MDA-MB-453; experiment: drug sensitivity score (DSS), in combination with BLU9931 (DSS (weighted AUC score)); higher = more sensitive (stronger viability decrease); extreme values may be limits of the assay; settings: BLU9931 100 nM; 72 h
Procedure, shortened: (§1)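 Drug sensitivity scores come from a weighted area under a four-parameter logistic fit to percent viability, normalised per plate to control wells. Viability was based on cellular ATP read with CellTiterGlo 2.0 after 72 h at 37 °C, 5% CO2. Each 384-well plate carried FIMM Oncology set compounds in singlicate at five 10-fold dilutions, with 2000 MDA-MB-453 cells per well in medium with or without an FGFR4 inhibitor at 100 nM final.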

[2] = system: MDA-MB-453; experiment: drug sensitivity score (DSS), single agent (DSS (weighted AUC score)); higher = more sensitive (stronger viability decrease); extreme values may be limits of the assay; settings: BLU9931 0 nM; 72 h
Procedure, shortened: as §1

C[C@@H]1C[C@H](N)C[C@H](c2ccncc2NC(=O)c2ccc(F)c(-c3c(F)cccc3F)n2)C1 [PIM-447]
drug sensitivity score [1]: 1.5 | drug sensitivity score [2]: 1.9
